Source: article PMC6555300

Biological target: T1, SiRe_0171 (N-His) (S. islandicus) (UniProt F0NBB9)
T1 sequence: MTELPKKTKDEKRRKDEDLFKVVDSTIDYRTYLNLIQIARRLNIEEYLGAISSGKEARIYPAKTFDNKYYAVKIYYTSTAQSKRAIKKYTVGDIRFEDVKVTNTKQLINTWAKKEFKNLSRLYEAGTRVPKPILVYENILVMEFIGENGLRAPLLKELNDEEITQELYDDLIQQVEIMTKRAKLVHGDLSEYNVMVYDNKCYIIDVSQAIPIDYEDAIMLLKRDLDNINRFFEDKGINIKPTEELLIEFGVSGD
Assay: pull-down; Hjc (no His-tag) and SiRe_0171 (N-His) mixed and incubated at 65 °C for 30 min, then Ni-NTA beads in buffer A (50 mM Tris-HCl pH 8.0, 200 mM NaCl, 5% glycerol) at RT for 10 min; washed four times with 40 mM imidazole, eluted with 250 mM imidazole; SDS-PAGE and Western blot; both purified

In the case of “Holliday junction resolvase Hjc (S. islandicus) (enzyme)”, the binding is reported as “binds weakly”.

These are yes or no findings as the source states them, for the method shown. A result given as binding can be weak or reduced; the word gives no strength. Where a sequence is shown, tags or fusion partners need not be part of it.
